## Cleaved PARP after 72 h of treatment

Source: doi:10.1371/journal.pone.0140310, primary screening data, rounded.

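Human melanoma cells were exposed to two drugs together for 72 h in 1,536-well plates and read by automated microscopy after fixing and staining. Values are the share of nuclei positive for cleaved PARP as a percentage of the same share in the DMSO control: 100 is the control level, higher means more apoptosis. Concentrations were fixed for each drug; these are the higher of two levels. No replicate spread is given; individual values may be noisy. Basal and induced levels differ widely between cell lines.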
An unselected part of the screen is shown.
A dash means that no value is listed here.

All values are for the listed drug together with GSK0660 (5000 nM): COC(=O)c1sccc1S(=O)(=O)Nc1ccc(Nc2ccccc2)cc1OC

Compounds and concentrations:
ENMD-2076: Cc1cc(Nc2cc(N3CCN(C)CC3)nc(/C=C/c3ccccc3)n2)n[nH]1 at 200 nM
vismodegib: CS(=O)(=O)c1ccc(C(=O)Nc2ccc(Cl)c(-c3ccccn3)c2)c(Cl)c1 at 5000 nM
GW0742: Cc1cc(SCc2sc(-c3ccc(C(F)(F)F)c(F)c3)nc2C)ccc1OCC(=O)O at 10000 nM
pioglitazone: CCc1ccc(CCOc2ccc(CC3SC(=O)NC3=O)cc2)nc1 (stereo unspecified) at 10000 nM
dorsomorphin: c1cc(-c2cnn3cc(-c4ccc(OCCN5CCCCC5)cc4)cnc23)ccn1 at 2000 nM
vorinostat: O=C(CCCCCCC(=O)Nc1ccccc1)NO at 400 nM
tanespimycin: C=CCNC1=C2C[C@@H](C)C[C@H](OC)[C@H](O)[C@@H](C)/C=C(\C)[C@H](OC(N)=O)[C@@H](OC)/C=C\C=C(/C)C(=O)NC(=CC1=O)C2=O at 10 nM
LFM-A13: C/C(O)=C(\C#N)C(=O)Nc1cc(Br)ccc1Br at 10000 nM
OSU-03012: NCC(=O)Nc1ccc(-n2nc(C(F)(F)F)cc2-c2ccc3c(ccc4ccccc43)c2)cc1 at 5000 nM
tamatinib: COc1cc(Nc2ncc(F)c(Nc3ccc4c(n3)NC(=O)C(C)(C)O4)n2)cc(OC)c1OC at 2000 nM
NVP-TAE684: COc1cc(N2CCC(N3CCN(C)CC3)CC2)ccc1Nc1ncc(Cl)c(Nc2ccccc2S(=O)(=O)C(C)C)n1 at 400 nM
GW9662: O=C(Nc1ccccc1)c1cc([N+](=O)[O-])ccc1Cl at 10000 nM
SNS-314: O=C(Nc1cccc(Cl)c1)Nc1ncc(CCNc2ncnc3ccsc23)s1 at 4 nM
YM155: COCC[n+]1c2c(n(Cc3cnccn3)c1C)C(=O)c1ccccc1C2=O at 2 nM
pazopanib: Cc1ccc(Nc2nccc(N(C)c3ccc4c(C)n(C)nc4c3)n2)cc1S(N)(=O)=O at 2000 nM
ABT-263: CC1(C)CCC(c2ccc(Cl)cc2)=C(CN2CCN(c3ccc(C(=O)NS(=O)(=O)c4ccc(N[C@H](CCN5CCOCC5)CSc5ccccc5)c(S(=O)(=O)C(F)(F)F)c4)cc3)CC2)C1 at 2000 nM
midostaurin: CO[C@@H]1[C@H](N(C)C(=O)c2ccccc2)C[C@H]2O[C@]1(C)n1c3ccccc3c3c4c(c5c6ccccc6n2c5c31)C(=O)NC4 at 400 nM
crizotinib: C[C@@H](Oc1cc(-c2cnn(C3CCNCC3)c2)cnc1N)c1c(Cl)ccc(F)c1Cl at 1000 nM
embelin: CCCCCCCCCCCC1=C(O)C(=O)C=C(O)C1=O at 6000 nM
enzastaurin: Cn1cc(C2=C(c3cn(C4CCN(Cc5ccccn5)CC4)c4ccccc34)C(=O)NC2=O)c2ccccc21 at 4000 nM
JZL184: O=C(Oc1ccc([N+](=O)[O-])cc1)N1CCC(C(O)(c2ccc3c(c2)OCO3)c2ccc3c(c2)OCO3)CC1 at 5000 nM
TCS401: O=C(O)C(=O)Nc1sc2c(c1C(=O)O)CCNC2 at 8330 nM
etoposide: COc1cc([C@@H]2c3cc4c(cc3[C@@H](O[C@@H]3O[C@@H]5CO[C@@H](C)O[C@H]5[C@H](O)[C@H]3O)[C@H]3COC(=O)[C@H]23)OCO4)cc(OC)c1O at 100 nM
sunitinib: CCN(CC)CCNC(=O)c1c(C)[nH]c(/C=C2\C(=O)Nc3ccc(F)cc32)c1C at 2000 nM
SU6656: CN(C)S(=O)(=O)c1ccc2c(c1)/C(=C/c1cc3c([nH]1)CCCC3)C(=O)N2 at 2000 nM
BI-78D3: O=c1[nH]nc(Sc2ncc([N+](=O)[O-])s2)n1-c1ccc2c(c1)OCCO2 at 1000 nM
OSI-906: C[C@]1(O)C[C@@H](c2nc(-c3ccc4ccc(-c5ccccc5)nc4c3)c3c(N)nccn32)C1 at 2000 nM
dasatinib: Cc1nc(Nc2ncc(C(=O)Nc3c(C)cccc3Cl)s2)cc(N2CCN(CCO)CC2)n1 at 20 nM
FK866: O=C(/C=C/c1cccnc1)NCCCCC1CCN(C(=O)c2ccccc2)CC1 at 50 nM
temozolomide: Cn1nnc2c(C(N)=O)ncn2c1=O at 10000 nM
CX-4945: O=C(O)c1ccc2c(c1)nc(Nc1cccc(Cl)c1)c1ccncc12 at 2000 nM
everolimus: CO[C@H]1C[C@@H]2CC[C@@H](C)[C@@](O)(O2)C(=O)C(=O)N2CCCC[C@H]2C(=O)O[C@H]([C@H](C)C[C@@H]2CC[C@@H](OCCO)[C@H](OC)C2)CC(=O)[C@H](C)/C=C(\C)[C@@H](O)[C@@H](OC)C(=O)[C@H](C)C[C@H](C)/C=C/C=C/C=C/1C at 100 nM
PF-562271: CN(c1ncccc1CNc1nc(Nc2ccc3c(c2)CC(=O)N3)ncc1C(F)(F)F)S(C)(=O)=O at 400 nM
nutlin-3: COc1ccc(C2=N[C@@H](c3ccc(Cl)cc3)[C@@H](c3ccc(Cl)cc3)N2C(=O)N2CCNC(=O)C2)c(OC(C)C)c1 at 500 nM
decitabine: Nc1ncn([C@H]2C[C@H](O)[C@@H](CO)O2)c(=O)n1 at 500 nM

| Second drug | WM3619 | A101D | MEL-HO | A375 | WM1745 | IPC-298 | SK-MEL-2 |
|---|---|---|---|---|---|---|---|
| sunitinib | 142 | 252 | 87.4 | 82.1 | - | 89.1 | 104 |
| OSU-03012 | 120 | 222 | 109 | 146 | 98.4 | 176 | 710 |
| midostaurin | 160 | 433 | 62.9 | 221 | 300 | 118 | 237 |
| LFM-A13 | 172 | 118 | 171 | 52.5 | 107 | 35.9 | 98.4 |
| GW9662 | 227 | 148 | 56.9 | 56.2 | 130 | 129 | 70.3 |
| CX-4945 | 120 | 76.1 | 63.9 | 211 | - | 52.6 | 170 |
| PF-562271 | 115 | 233 | 92.9 | 265 | - | 87.0 | 149 |
| decitabine | 96.8 | 63.8 | 84.9 | 162 | - | 100 | 99.8 |
| dorsomorphin | 134 | 58.0 | 97.9 | 33.7 | 141 | 98.4 | 37.6 |
| nutlin-3 | 86.2 | 118 | 101 | 95.0 | - | 68.5 | 162 |
| tanespimycin | 175 | 65.0 | 97.3 | 70.1 | - | 105 | 107 |
| vorinostat | 135 | 136 | 43.9 | 47.2 | 111 | 77.4 | 35.5 |
| NVP-TAE684 | 198 | 141 | 45.0 | 149 | 170 | 66.0 | 263 |
| FK866 | 164 | 312 | 638 | 64.6 | - | 268 | 2690 |
| etoposide | 124 | 109 | 57.8 | 43.0 | - | 86.1 | 254 |
| dasatinib | 160 | 45.8 | 224 | 119 | 154 | 46.6 | 66.6 |
| everolimus | 141 | 78.2 | 106 | 50.2 | - | 188 | 161 |
| JZL184 | 109 | 122 | 85.6 | 33.2 | 94.6 | 164 | 116 |
| SU6656 | 91.0 | 133 | 53.3 | 61.9 | 177 | 130 | 107 |
| pazopanib | 114 | 95.8 | 44.1 | 53.6 | - | 120 | 161 |
| SNS-314 | 175 | 53.3 | 69.3 | 44.8 | 243 | 139 | 80.7 |
| embelin | 146 | 30.7 | 379 | 28.9 | 93.6 | 69.5 | 127 |
| pioglitazone | 99.9 | 88.5 | 96.3 | 64.8 | 97.9 | 85.4 | 106 |
| tamatinib | 117 | 67.5 | 116 | 68.0 | 160 | 116 | 190 |
| crizotinib | 119 | 112 | 185 | 87.2 | - | 70.0 | 35.8 |
| BI-78D3 | 120 | 29.6 | 68.6 | 151 | - | 200 | 99.2 |
| ENMD-2076 | 142 | 48.4 | 81.5 | 242 | - | 92.4 | 82.3 |
| temozolomide | 82.3 | 105 | 27.6 | 50.7 | 101 | 50.9 | 38.6 |
| enzastaurin | 68.0 | 105 | 72.7 | 36.5 | - | 43.6 | 168 |
| OSI-906 | 106 | 42.5 | 89.6 | 142 | - | 50.5 | 140 |
| ABT-263 | 94.0 | 135 | 239 | 426 | - | 148 | 441 |
| TCS401 | 136 | 70.1 | 24.3 | 38.7 | 129 | 23.6 | - |
| GW0742 | 124 | 102 | 50.6 | 40.3 | 127 | 191 | 192 |
| YM155 | 99.9 | 149 | 88.1 | 103 | 115 | 115 | 194 |
| vismodegib | 93.8 | 191 | 75.4 | 38.4 | - | 92.6 | 115 |

3 of the entries, repeated:

Second drug	WM3619	A101D	MEL-HO	A375	WM1745	IPC-298	SK-MEL-2
NVP-TAE684	198	141	45.0	149	170	66.0	263
tamatinib	117	67.5	116	68.0	160	116	190
TCS401	136	70.1	24.3	38.7	129	23.6	-